According to publication PMC12507020:
Results are given in words; binding and its absence hold for the method and conditions named. Binding seen in cells or lysates may run through a third protein. Where a sequence is shown, tags or fusion partners need not be part of it.

Chains of the proteins cited; added tags and fusions are not shown.
UniProt P52294: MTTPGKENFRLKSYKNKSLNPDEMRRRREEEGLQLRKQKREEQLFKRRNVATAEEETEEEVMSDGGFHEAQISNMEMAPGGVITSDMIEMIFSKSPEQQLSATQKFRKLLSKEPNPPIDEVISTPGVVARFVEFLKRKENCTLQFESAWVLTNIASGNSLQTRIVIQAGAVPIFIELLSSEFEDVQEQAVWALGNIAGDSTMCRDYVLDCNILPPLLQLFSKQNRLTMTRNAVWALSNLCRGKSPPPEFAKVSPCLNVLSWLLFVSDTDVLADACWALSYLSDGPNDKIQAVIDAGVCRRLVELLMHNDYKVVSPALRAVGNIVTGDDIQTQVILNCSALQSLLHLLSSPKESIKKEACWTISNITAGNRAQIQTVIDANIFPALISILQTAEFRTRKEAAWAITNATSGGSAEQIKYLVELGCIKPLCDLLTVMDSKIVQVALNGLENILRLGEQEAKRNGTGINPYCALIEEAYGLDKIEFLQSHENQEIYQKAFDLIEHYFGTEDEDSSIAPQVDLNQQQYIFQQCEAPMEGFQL
UniProt O00629: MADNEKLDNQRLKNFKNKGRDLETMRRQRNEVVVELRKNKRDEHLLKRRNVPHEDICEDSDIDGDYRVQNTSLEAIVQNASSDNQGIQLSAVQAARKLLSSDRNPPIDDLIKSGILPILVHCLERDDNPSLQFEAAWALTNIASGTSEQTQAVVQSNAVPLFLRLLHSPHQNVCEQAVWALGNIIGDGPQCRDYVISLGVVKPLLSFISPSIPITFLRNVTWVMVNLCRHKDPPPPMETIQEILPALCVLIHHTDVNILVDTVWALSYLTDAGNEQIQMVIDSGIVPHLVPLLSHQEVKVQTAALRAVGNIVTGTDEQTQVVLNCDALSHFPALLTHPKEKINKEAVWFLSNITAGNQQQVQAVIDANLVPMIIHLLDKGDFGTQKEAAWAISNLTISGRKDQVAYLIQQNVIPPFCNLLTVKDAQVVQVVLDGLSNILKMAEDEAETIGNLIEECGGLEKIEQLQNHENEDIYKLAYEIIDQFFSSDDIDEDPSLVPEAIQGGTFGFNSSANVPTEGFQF

Target: T1, HA-PKCζ (protein kinase C zeta), wild type (human) (UniProt Q05513)
T1 sequence: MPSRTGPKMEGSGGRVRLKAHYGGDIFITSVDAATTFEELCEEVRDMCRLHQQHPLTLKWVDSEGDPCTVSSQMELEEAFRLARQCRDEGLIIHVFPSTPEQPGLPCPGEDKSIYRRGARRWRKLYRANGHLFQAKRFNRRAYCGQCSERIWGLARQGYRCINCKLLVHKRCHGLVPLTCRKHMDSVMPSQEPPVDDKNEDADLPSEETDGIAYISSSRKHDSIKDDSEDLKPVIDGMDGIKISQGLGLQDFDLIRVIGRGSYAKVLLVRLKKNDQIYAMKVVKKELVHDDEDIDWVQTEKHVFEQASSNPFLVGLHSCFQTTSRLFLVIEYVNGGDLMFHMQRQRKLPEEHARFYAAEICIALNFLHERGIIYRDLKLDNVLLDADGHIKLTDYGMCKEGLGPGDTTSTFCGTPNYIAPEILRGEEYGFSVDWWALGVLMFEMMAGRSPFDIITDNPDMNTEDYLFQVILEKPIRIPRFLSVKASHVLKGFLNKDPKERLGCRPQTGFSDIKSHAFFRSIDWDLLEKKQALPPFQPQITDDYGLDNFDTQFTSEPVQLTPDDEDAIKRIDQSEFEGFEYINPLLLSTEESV
Assay: co-IP; 293T cells transfected with HA-PKCζ (wild type, C48A or deletion mutants); exogenous Co-IP: anti-HA beads or anti-Flag beads with equal amounts of total protein overnight, washed three times (20 mmol/L Tris-HCl, 250 mmol/L NaCl, 0.2 mmol/L EGTA, 0.1% Nonidet P-40), western blot; cells untreated or treated with glucose starvation 2 h, metformin 10 mmol/L 12 h, NAC 10 mmol/L, H2O2 1 mmol/L 30 min

binding | Substance
no binding | KPNA1 (importin α5) (from UniProt P52294 1-538)
no binding | KPNA4 (importin α3) (from UniProt O00629 1-521)
